Experimental data taken from patent US20050282887A1, “Novel sulfamate and sulfamide derivatives useful for the treatment of epilepsy and related disorders” (priority 2004, published 2005).
At least one structure is not confirmed: it was looked up by name or label, or the drawing left a doubt.

Tested on: CF-1 male albino mice
Assay: Maximal Electroshock Test (MES), anticonvulsant activity
Format: in vivo
Conditions: @ 1 h, 100 mg/kg oral
Experimental: Anticonvulsant activity was determined using the MES test, run according to the procedure described in detail below. Swinyard E A, Woodhead J H, White H S, Franklin M R. Experimental selection, quantification, and evaluation of anticonvulsants. In Levy R H, et al., eds. Antiepileptic Drugs. 3rd ed. New York: Raven Press, 1989:85-102
CF-1 male albino mice (25-35 g) were fasted for 16 hours before testing. Mice were randomly selected into control and test groups, with the animals dosed with vehicle or test compound, at varying concentrations, respectively. On the study date, at 30 minutes prior to shock, the mice were orally dosed with vehicle (0.5% methylcellulose) or test compound (100-300 mg/kg). Seizures were induced by trans-corneal electric shock using a 60-Hz alternating current, 50 mA, delivered for 0.2 sec. The mice in the test groups were subjected to electrical stimulus at time intervals between 15 minutes and 4 hours following administration of test compound. […] The test was complete when the entire course of the convulsion has been observed (typically, less than 1 minute after electrical stimulation), and the mice were then immediately euthanized by carbon dioxide inhalation.
Abolition of the full body tonic extensor component of the seizure was taken as the endpoint of the test. […]

## NS(=O)(=O)OCC1CCc2ccccc2O1 (stereo not shown) [Compound #11, Chroman-2-ylmethylsulfamate]
  MES Activity: number of mice with full body tonic extension prevented/total number of mice tested: 4/5 @ 1 h (100 mg/kg)
